Test results reported in the supplement of paper PMC7666118.
The other results are listed elsewhere or left out.

By UniProt entry, the sequences of proteins in these tests, tags left out. Where a name states a change or a piece, a line headed by the entry shows the natural chain unless it says otherwise.
UniProt Q9BRT3: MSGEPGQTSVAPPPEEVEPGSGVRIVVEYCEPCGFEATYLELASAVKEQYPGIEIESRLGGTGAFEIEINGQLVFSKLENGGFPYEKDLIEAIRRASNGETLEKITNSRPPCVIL
UniProt Q9BTE3: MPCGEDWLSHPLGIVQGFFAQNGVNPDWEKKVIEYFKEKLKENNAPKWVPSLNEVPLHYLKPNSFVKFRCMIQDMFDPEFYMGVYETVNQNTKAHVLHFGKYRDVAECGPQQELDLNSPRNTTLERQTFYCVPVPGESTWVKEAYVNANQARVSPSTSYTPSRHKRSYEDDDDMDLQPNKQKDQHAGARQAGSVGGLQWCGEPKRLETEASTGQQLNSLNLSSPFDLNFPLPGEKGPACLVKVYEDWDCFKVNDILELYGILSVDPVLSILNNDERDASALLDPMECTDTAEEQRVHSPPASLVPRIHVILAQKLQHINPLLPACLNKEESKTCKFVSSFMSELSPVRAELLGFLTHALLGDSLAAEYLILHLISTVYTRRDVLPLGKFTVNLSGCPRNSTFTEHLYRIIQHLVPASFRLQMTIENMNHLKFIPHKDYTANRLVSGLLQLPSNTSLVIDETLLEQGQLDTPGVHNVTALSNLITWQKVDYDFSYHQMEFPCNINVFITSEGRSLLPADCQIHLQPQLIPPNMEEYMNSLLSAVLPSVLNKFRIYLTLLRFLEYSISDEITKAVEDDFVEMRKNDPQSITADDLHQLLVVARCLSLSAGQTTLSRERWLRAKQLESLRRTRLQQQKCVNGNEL
UniProt Q6Y288: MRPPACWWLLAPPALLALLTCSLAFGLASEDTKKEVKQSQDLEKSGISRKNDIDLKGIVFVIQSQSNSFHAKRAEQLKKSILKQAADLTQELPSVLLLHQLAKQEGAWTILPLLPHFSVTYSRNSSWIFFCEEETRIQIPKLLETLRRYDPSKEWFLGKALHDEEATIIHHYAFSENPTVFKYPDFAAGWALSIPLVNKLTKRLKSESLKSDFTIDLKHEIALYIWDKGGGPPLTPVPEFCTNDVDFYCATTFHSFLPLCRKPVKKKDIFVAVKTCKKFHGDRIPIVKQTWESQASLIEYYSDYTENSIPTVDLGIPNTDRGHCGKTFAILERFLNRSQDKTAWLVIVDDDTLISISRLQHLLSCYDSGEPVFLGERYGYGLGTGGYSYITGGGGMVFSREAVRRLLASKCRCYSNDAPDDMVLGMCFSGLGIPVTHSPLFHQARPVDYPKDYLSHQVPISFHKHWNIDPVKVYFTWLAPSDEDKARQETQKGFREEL
UniProt Q8WY36: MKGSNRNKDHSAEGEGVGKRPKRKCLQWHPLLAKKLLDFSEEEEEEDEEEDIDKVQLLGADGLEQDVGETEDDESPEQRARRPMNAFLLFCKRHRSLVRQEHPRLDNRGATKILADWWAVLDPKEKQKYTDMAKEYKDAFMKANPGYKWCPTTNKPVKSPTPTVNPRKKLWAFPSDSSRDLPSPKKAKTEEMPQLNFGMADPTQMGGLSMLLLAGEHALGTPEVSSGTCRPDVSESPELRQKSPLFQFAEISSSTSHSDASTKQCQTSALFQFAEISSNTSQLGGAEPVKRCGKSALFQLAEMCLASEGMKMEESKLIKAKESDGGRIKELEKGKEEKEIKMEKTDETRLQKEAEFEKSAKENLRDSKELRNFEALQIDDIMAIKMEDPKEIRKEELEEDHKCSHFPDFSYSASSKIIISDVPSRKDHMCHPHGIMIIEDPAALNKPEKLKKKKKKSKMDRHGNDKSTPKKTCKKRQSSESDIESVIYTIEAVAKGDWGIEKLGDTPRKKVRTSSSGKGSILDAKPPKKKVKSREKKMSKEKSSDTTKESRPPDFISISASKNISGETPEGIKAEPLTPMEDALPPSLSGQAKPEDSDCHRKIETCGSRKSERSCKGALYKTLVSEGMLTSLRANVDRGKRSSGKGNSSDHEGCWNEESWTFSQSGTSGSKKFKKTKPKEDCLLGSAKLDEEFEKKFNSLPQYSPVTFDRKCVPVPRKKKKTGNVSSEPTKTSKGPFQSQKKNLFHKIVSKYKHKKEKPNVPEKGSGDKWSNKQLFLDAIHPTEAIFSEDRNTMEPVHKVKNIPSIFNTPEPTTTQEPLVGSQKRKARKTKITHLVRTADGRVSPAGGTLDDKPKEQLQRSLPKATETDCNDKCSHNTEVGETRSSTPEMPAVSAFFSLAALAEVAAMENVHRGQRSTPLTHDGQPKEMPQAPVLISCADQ
UniProt Q9BUT1: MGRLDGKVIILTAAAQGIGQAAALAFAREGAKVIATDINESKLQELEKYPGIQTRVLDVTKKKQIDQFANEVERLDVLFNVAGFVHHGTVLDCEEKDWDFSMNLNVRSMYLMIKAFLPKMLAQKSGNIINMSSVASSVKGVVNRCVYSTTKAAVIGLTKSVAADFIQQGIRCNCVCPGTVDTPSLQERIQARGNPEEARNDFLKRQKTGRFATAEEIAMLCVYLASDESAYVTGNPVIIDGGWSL
UniProt Q5JUR7: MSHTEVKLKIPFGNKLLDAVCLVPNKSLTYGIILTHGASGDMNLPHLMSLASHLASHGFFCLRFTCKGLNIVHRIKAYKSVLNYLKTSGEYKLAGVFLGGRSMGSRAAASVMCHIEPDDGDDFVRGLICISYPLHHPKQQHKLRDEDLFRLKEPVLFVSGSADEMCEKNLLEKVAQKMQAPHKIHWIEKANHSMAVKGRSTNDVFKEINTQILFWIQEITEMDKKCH
UniProt Q9UKR5: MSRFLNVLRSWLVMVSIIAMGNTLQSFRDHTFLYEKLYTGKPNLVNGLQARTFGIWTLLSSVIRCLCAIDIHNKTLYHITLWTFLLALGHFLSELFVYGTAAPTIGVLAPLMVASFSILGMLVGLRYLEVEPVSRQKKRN
UniProt P46379: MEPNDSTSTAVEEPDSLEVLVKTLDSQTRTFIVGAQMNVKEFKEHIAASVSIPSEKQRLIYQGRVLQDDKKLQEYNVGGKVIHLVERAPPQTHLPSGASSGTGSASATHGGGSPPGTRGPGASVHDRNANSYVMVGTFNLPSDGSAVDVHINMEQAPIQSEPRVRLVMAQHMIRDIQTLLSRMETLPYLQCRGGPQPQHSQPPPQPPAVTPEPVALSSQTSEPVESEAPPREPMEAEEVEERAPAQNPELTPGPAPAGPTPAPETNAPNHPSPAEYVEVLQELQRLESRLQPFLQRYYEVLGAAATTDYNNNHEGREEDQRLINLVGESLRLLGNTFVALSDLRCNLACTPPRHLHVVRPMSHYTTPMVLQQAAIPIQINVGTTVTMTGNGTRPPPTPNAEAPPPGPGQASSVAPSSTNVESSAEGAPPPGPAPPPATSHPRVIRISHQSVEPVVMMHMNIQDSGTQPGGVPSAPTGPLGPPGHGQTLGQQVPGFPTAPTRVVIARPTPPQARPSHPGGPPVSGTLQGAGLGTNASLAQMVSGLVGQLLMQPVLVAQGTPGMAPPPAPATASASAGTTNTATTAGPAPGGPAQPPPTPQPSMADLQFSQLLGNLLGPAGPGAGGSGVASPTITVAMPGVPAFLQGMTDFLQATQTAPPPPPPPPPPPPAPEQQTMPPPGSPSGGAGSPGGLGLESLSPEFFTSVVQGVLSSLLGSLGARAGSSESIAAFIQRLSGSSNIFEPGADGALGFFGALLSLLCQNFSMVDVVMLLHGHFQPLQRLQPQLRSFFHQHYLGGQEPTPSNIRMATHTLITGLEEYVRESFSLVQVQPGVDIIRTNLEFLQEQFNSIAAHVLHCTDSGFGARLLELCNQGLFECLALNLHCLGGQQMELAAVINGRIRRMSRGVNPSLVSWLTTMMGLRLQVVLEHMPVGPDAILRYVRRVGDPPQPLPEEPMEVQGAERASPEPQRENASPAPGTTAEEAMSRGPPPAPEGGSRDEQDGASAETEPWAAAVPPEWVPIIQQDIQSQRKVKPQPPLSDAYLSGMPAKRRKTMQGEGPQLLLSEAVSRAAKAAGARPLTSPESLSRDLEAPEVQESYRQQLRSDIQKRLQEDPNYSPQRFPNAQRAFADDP
UniProt Q7Z7A3: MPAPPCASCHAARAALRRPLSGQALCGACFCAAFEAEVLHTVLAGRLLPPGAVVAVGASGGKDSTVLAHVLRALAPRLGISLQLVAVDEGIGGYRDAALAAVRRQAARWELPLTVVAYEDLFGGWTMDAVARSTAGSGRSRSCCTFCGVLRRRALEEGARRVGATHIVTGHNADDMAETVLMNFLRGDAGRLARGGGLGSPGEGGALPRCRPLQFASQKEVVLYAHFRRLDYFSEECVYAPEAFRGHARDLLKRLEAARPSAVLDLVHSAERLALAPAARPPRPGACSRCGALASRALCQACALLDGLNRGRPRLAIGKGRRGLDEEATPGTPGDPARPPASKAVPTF
UniProt Q9NWV8, whole entry: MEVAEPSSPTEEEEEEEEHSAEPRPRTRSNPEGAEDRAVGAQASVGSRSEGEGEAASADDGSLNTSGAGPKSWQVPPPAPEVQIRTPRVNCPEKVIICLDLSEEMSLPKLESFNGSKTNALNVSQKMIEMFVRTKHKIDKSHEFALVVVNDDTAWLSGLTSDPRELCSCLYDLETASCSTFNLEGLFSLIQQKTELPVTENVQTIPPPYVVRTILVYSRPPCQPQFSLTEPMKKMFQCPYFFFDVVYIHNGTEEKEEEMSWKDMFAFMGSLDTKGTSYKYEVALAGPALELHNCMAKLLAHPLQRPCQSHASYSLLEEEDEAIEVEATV
UniProt P56381: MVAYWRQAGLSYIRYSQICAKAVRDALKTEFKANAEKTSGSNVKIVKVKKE
UniProt O75348, whole entry: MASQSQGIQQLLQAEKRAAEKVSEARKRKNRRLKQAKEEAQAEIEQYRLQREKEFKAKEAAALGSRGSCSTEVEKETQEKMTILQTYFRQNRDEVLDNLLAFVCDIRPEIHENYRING
UniProt Q9HB07: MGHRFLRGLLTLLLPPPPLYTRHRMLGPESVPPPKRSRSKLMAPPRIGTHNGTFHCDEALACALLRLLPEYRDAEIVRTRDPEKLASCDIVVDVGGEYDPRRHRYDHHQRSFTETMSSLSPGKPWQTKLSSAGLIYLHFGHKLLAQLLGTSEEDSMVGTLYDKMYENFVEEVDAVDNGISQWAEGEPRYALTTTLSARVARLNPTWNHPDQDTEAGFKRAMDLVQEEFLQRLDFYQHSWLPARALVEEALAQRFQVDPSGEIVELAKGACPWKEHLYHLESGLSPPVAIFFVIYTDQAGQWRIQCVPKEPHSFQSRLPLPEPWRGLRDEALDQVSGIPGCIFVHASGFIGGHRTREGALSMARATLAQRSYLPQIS
UniProt Q99622: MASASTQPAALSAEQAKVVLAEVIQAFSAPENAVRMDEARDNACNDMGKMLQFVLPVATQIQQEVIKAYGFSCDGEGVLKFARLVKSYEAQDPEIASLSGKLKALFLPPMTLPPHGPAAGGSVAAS
UniProt Q7Z569: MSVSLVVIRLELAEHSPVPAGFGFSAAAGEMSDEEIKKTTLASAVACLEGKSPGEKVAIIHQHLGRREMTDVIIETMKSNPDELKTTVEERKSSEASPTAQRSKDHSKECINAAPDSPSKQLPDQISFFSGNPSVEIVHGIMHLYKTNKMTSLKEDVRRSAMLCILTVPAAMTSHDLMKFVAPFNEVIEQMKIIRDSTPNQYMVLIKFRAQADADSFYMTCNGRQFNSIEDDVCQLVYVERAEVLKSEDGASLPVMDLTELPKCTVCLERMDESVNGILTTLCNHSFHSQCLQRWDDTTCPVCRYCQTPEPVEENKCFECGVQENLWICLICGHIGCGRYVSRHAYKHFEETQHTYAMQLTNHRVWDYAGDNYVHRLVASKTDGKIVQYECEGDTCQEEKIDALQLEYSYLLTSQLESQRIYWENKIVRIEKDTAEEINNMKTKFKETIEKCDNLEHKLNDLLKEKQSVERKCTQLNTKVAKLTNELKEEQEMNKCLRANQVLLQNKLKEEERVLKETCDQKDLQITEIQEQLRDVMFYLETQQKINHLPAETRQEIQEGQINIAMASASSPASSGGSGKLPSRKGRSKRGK
UniProt Q5T2E6: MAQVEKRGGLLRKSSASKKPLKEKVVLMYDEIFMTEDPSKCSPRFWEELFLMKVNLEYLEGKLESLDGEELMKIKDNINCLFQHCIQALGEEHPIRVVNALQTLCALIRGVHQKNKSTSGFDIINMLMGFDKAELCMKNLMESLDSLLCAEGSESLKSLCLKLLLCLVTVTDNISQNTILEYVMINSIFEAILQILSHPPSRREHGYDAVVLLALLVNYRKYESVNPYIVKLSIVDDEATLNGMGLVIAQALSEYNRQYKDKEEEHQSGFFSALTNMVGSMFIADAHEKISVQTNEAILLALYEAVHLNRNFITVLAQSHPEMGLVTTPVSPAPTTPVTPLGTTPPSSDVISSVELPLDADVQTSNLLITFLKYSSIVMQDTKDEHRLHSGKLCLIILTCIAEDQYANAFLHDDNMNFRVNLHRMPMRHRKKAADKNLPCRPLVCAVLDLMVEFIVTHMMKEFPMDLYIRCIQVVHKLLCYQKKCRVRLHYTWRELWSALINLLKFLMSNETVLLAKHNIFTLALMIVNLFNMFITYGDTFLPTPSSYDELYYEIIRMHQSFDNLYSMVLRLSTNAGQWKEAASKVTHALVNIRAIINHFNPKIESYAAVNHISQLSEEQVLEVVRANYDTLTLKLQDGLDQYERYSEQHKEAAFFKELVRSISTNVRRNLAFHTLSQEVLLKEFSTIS

Compound: COc1ccc(Cn2ccc3cc(C)c(C(=O)NO)cc32)cc1
Assay: dose-dependent thermal stabilisation call (2D-TPP, DLPTP, 10% FDR) (binary (1 = stabilised)); higher = stabilised by the compound
Conditions: system: HL-60 intact cells; concentration range 0.04-10 µM
Description: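 2D thermal proteome profiling in intact HL-60 cells treated with BRD-3811 (0, 0.04, 0.29, 2, 10 uM) for 90 min at 37 C, then heated 3 min at one of 12 temperatures (42-63.9 C). Soluble protein was quantified by TMT10 MS. The value is the DLPTP call of the paper: dose-dependent thermal stabilisation over all temperatures at 10% FDR (F-test of a dose-response against a flat model); one experiment, one call per tested protein.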

| Target | dose-dependent thermal stabilisation call |
| --- | --- |
| C17ORF37 (UniProt Q9BRT3) | inactive: 0 |
| C10ORF119 (UniProt Q9BTE3) | inactive: 0 |
| B3GALTL (UniProt Q6Y288) | inactive: 0 |
| BBX (UniProt Q8WY36) | inactive: 0 |
| BDH2 (UniProt Q9BUT1) | inactive: 0 |
| C10ORF28 (UniProt Q7Z5L2) | inactive: 0 |
| B4GALT7 (UniProt Q9UBV7) | inactive: 0 |
| C13ORF27 (UniProt Q5JUR7) | inactive: 0 |
| B2M (UniProt P61769) | inactive: 0 |
| C14ORF1 (UniProt Q9UKR5) | inactive: 0 |
| BAT3 (UniProt P46379) | inactive: 0 |
| ATPBD3 (UniProt Q7Z7A3) | inactive: 0 |
| C18ORF24 (UniProt Q96BD8) | inactive: 0 |
| BCAS3 (UniProt Q9H6U6) | inactive: 0 |
| C19ORF62 (UniProt Q9NWV8) | inactive: 0 |
| ATP5E (UniProt P56381) | inactive: 0 |
| ATP6V1G1 (UniProt O75348) | inactive: 0 |
| ATP1B1 (UniProt P05026) | inactive: 0 |
| BSDC1 (UniProt Q9NW68) | inactive: 0 |
| BCL2L1 (UniProt Q07817) | inactive: 0 |
| C12ORF10 (UniProt Q9HB07) | inactive: 0 |
| C12ORF57 (UniProt Q99622) | inactive: 0 |
| C11ORF58 (UniProt O00193) | inactive: 0 |
| ATP5SL (UniProt Q9NW81) | inactive: 0 |
| BRAP (UniProt Q7Z569) | inactive: 0 |
| C10ORF76 (UniProt Q5T2E6) | inactive: 0 |
